PubChem BioAssay AID1508588 | Peter MacCallum Cancer Centre – 2020
Here is one part, drawn at random, of about 18,000 reagents. Of all reagents, 790 (4.4%) were called active. 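Calls rest on a combination of fold-change classes in drug and vehicle arms, not all shown here.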 Reagent sequences are not shown.

- Purpose: 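Genome-wide search for knock-downs that heighten vemurafenib action in melanoma cells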 (primary screen)
- System: human WM266.4 melanoma cells (BRAF V600 mutant)
- Reagents: siRNA pool against human genes, 40 nM
- Timing: 96 h from transfection to read-out
- Challenge: vemurafenib 300 nM (about IC25), added 48 h after transfection, for 48 h; comparison arm got DMSO vehicle only
- Measured: 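Ratios to non-targeting siRNA for cell gain, counted as DAPI nuclei after minus before drug and averaged over two replicates, and for absorbance-read medium lactate per cell; both binned into fold-change classes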
- Direction: cell gain with vemurafenib: higher = more cell gain than with non-targeting siRNA; lactate per cell with vemurafenib: higher = more lactate made per cell
- Rule for the call: 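a knock-down counts as enhancing when its fold-change classes with vehicle and with vemurafenib, taken together, show a stronger drug effect on cell gain or lactate per cell; exact class pairs not stated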
- Meaning of the calls: active = enhances vemurafenib effect; inactive = no enhancement seen

Target gene	cell gain with vemurafenib	lactate per cell with vemurafenib	activity call
MATN4	0.03	1.95	inactive
ZNF263	1.19	0.9	inactive
MIS18BP1	0.33	1.29	inactive
HEPH	0.92	0.32	active
WBP1L	0.57	0.86	inactive
WNT6	0.9	0.68	inactive
MYOF	0.13	1.01	inactive
ALS2	0.28	0.4	inactive
C11orf42	0.5	1.23	inactive
MCOLN2	0.56	1.7	inactive
MTMR10	0.73	0.7	inactive
GRPR	1.41	0.51	inactive
DRC8	0.35	1.4	inactive
IGLL3P	0.82	0.83	inactive
LTK	1	0.82	inactive
LCN9	-0.09	1.73	inactive
ZNF154	0.58	0.56	inactive
CNNM4	0.84	0.57	inactive
NOG	0.25	2.12	inactive
CHIC1	0.34	1.03	inactive
SULF1	0.53	0.78	inactive
PLAC8L1	0.73	0.86	inactive
SHANK2	0.09	0.92	inactive
ZNF311	0.79	0.85	inactive
SRRM1	0.71	0.99	inactive
DGUOK	0.61	0.55	inactive
RMDN3	0.4	1.34	inactive
ERAP1	0.49	0.96	inactive
ERF	0.56	0.9	inactive
MOCOS	1.99	0.88	inactive
SIGLEC5	0.53	0.55	inactive
ADSS2	0.83	1.06	inactive
GRIK3	0.75	0.69	active
MEI1	0.62	0.94	inactive
REST	0.69	1.46	inactive
CWF19L2	0.48	0.9	inactive
FAM9C	0.64	0.85	inactive
GPX4	0.62	1.05	inactive
LINC00518	0.91	0.68	inactive
DOP1B	0.54	0.62	inactive
CDKN1C	0.65	0.77	inactive
GPR21	0.56	1.1	inactive
CES1	0.17	1.06	inactive
STK39	0.19	1.49	inactive
REXO1L1P	0.72	1.88	inactive
ZBTB47	0.23	1.1	inactive
AURKA	-0.09	2.12	inactive
PRY2	0.61	0.29	active
NEMP1	0.46	1.14	inactive
TMEM71	0.42	1.08	inactive
C5	0.8	0.98	inactive
PI16	0.89	0.82	inactive
ICOS	0.39	0.84	inactive
ARFGEF1	0.56	0.77	inactive
CAPN15	0.61	0.76	inactive
PGRMC1	0.42	0.6	inactive
ZFYVE26	0.43	0.75	inactive
PPP4R4	0.17	1.36	inactive
MAN2B2	0.7	0.82	inactive
BRD7	0.3	0.53	inactive
PDS5B	0.46	0.64	inactive
COMMD8	0.98	1	inactive
MMRN1	0.53	0.66	inactive
CCT8L2	1.18	0.5	inactive
CNPY3	0.47	0.74	inactive
LDLRAD3	0.23	1.19	inactive
CNBD1	0.66	0.9	inactive
ZC3H18	0.47	1.62	inactive
PCARE	0.49	2.5	inactive
MRPS27	0.38	0.76	inactive
SOX2	0.68	0.74	inactive
SNAP23	1.02	0.2	inactive
METTL22	0.08	1.23	inactive
C12orf71	0.77	0.8	inactive
SCARB1	0.74	0.61	inactive
CSK	0.59	1.23	inactive
LRRC8C	0.34	1.82	inactive
POLD2	0.28	2.04	inactive
ZSWIM7	0.49	0.79	inactive
SLC34A3	0.44	0.5	inactive
KRT9	0.36	1.69	inactive
INS-IGF2	0.79	1.09	inactive
PHF10	1.18	0.76	inactive
EIF4EBP1	0.43	0.59	inactive

14 of these entries in another layout:
Target gene | cell gain with vemurafenib | lactate per cell with vemurafenib | activity call
NEMP1 | 0.46 | 1.14 | inactive
TMEM71 | 0.42 | 1.08 | inactive
C5 | 0.8 | 0.98 | inactive
PI16 | 0.89 | 0.82 | inactive
ICOS | 0.39 | 0.84 | inactive
ARFGEF1 | 0.56 | 0.77 | inactive
CAPN15 | 0.61 | 0.76 | inactive
PGRMC1 | 0.42 | 0.6 | inactive
ZFYVE26 | 0.43 | 0.75 | inactive
PPP4R4 | 0.17 | 1.36 | inactive
MAN2B2 | 0.7 | 0.82 | inactive
BRD7 | 0.3 | 0.53 | inactive
PDS5B | 0.46 | 0.64 | inactive
COMMD8 | 0.98 | 1 | inactive
